Record: PubChem BioAssay AID1159584 (Peter MacCallum Cancer Centre, 2016)

Screen: 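Genes that CDH1-null MCF10A cells selectively depend on to survive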 (primary screen)
Cell system: human MCF10A breast epithelial cells, parental and CDH1-null
Knock-down reagent: siRNA against human genes
Detection: 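ATP luminescence (CellTiter-Glo) viability per line relative to mean mock wells over all plates, and the ratio of CDH1-null to parental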
Direction: CDH1-null / parental viability ratio: higher = CDH1-null cells survive relatively better than parental; CDH1-null viability vs mock: higher = more viable CDH1-null cells; parental viability vs mock: higher = more viable parental cells
In all, the deposit lists about 18,000 reagents; below is an unselected part. No sequences are given here. Not given: the amount of reagent, the time to read-out.

| target | CDH1-null / parental viability ratio | CDH1-null viability vs mock (fraction of mock) | parental viability vs mock (fraction of mock) |
| --- | --- | --- | --- |
| CEP55 | 0.99 | 0.79 | 0.8 |
| DNPEP | 1.53 | 0.72 | 0.47 |
| CCDC78 | 1.5 | 0.6 | 0.4 |
| SPATA31E1 | 1.06 | 0.51 | 0.48 |
| CDH3 | 0.87 | 0.76 | 0.87 |
| PARPBP | 0.88 | 0.9 | 1.02 |
| ABCC2 | 0.98 | 1.02 | 1.04 |
| SORBS2 | 0.78 | 0.86 | 1.1 |
| QRSL1 | 1.03 | 1.12 | 1.09 |
| TCF7 | 0.91 | 0.52 | 0.57 |
| RHBG | 0.82 | 0.23 | 0.28 |
| CHDH | 0.89 | 0.75 | 0.84 |
| NDUFS5 | 1.07 | 0.92 | 0.86 |
| FOXC1 | 1.01 | 0.87 | 0.86 |
| ABTB3 | 0.97 | 0.58 | 0.6 |
| DTX4 | 0.95 | 0.93 | 0.98 |

A few values from the entries so far:
Result of DNPEP in “parental viability vs mock (fraction of mock)”: 0.47
Value for QRSL1 in “parental viability vs mock (fraction of mock)”: 1.09
For “CDH1-null / parental viability ratio”, SPATA31E1 has 1.06
Entry for PARPBP in “CDH1-null viability vs mock (fraction of mock)”: 0.9
ABTB3, CDH1-null viability vs mock (fraction of mock) = 0.58
Under “CDH1-null / parental viability ratio”, NDUFS5 has 1.07

Next entries follow.
| target | CDH1-null / parental viability ratio | CDH1-null viability vs mock (fraction of mock) | parental viability vs mock (fraction of mock) |
| --- | --- | --- | --- |
| CDK10 | 0.91 | 0.86 | 0.95 |
| HDAC7 | 0.89 | 0.72 | 0.81 |
| ZFPM2 | 1.04 | 0.88 | 0.85 |
| YPEL4 | 1.34 | 0.71 | 0.53 |
| CDC5L | 1.03 | 0.4 | 0.39 |
| CMKLR2 | 0.92 | 0.92 | 1 |
| CNOT2 | 0.83 | 0.7 | 0.84 |
| CREG1 | 0.9 | 0.77 | 0.86 |
| SUV39H2 | 0.82 | 0.58 | 0.71 |
| SLC39A14 | 1.08 | 0.9 | 0.83 |
| RING1 | 0.91 | 0.51 | 0.56 |
| TBL1XR1 | 1.2 | 1.08 | 0.9 |
| FSCN3 | 0.86 | 0.55 | 0.64 |
| GGT2P | 1.02 | 1.04 | 1.02 |
| BTG3 | 0.98 | 0.94 | 0.96 |
| TRIM51EP | 0.94 | 0.82 | 0.87 |
| MAGEA2B | 1.03 | 0.97 | 0.94 |
| MED22 | 1.14 | 0.5 | 0.44 |
| REEP3 | 1.11 | 0.82 | 0.74 |
| EDAR | 0.74 | 0.64 | 0.86 |
| IPO9 | 0.8 | 0.53 | 0.66 |
| TAF1 | 1.09 | 0.98 | 0.9 |
| CLIC2 | 1.06 | 0.74 | 0.7 |
| SKA3 | 1.14 | 0.75 | 0.66 |
| DOCK3 | 1.22 | 1.27 | 1.04 |
| CRAMP1 | 1.15 | 1.08 | 0.94 |
| PANK1 | 0.88 | 0.76 | 0.86 |
| DCTD | 1.19 | 1.02 | 0.86 |
| DSE | 1.05 | 0.63 | 0.6 |
| TANK | 0.98 | 1 | 1.02 |
